Some of the results follow. The calls were merged from several studies; some rest on single wells.
Experiments:
Settings in all cases: stereoisomer not certain
O52I2 = tested on: T1, O52I2
T1 sequence (whole entry): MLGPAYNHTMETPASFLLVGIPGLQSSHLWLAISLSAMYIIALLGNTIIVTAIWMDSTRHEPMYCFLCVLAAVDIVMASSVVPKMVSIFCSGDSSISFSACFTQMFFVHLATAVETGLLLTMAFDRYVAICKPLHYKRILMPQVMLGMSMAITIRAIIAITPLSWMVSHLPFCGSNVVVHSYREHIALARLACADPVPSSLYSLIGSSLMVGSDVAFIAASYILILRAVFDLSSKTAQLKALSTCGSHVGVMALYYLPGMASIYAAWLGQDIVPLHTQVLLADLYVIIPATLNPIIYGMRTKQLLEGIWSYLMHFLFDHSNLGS
How it was run: (§1)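 Values were gathered from published papers (main text and supplementary material), with extra details requested from the original authors when needed, and checked for typos and inconsistencies. Each receptor–molecule pair is called responsive (active) if the original authors judged the measured signal statistically different from baseline, and non-responsive (inactive) otherwise. Assay methods varied by source, often transient mammalian cell-line luciferase assays. Recorded details include cell line, G-protein, co-transfected protein and tags.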

O52J3 = tested on: T2, O52J3
T2 sequence (whole entry): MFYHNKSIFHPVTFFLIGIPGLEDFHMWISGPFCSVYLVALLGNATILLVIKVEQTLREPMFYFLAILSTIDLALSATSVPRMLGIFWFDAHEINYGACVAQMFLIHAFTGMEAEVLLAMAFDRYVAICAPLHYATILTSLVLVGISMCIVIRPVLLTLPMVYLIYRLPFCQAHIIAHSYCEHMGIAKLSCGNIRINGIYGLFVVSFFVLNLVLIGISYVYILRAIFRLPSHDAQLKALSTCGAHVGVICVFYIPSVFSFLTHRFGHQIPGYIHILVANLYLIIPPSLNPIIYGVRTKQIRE
How it was run: as §1

O52L1 = tested on: T3, O52L1
T3 sequence (whole entry): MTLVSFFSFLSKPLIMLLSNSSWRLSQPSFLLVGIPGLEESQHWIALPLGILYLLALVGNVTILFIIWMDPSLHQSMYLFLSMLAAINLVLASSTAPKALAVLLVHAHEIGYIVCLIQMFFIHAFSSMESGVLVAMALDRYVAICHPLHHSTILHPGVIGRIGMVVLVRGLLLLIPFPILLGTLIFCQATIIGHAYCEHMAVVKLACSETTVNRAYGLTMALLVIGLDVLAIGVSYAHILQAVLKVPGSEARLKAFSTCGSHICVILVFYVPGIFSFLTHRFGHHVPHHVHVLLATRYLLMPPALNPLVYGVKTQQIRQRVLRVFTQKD
How it was run: as §1

O52L2 = tested on: T4, O52L2
T4 sequence (whole entry): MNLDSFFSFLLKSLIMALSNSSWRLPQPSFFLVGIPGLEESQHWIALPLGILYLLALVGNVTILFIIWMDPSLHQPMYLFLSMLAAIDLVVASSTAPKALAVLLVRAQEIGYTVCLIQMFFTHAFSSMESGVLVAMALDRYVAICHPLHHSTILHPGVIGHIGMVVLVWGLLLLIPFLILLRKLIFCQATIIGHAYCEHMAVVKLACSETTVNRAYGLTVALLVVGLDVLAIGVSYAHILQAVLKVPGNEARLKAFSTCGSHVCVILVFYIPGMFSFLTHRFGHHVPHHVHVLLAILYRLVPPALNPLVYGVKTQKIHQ
How it was run: as §1

O52M1 = tested on: T5, O52M1
T5 sequence (whole entry): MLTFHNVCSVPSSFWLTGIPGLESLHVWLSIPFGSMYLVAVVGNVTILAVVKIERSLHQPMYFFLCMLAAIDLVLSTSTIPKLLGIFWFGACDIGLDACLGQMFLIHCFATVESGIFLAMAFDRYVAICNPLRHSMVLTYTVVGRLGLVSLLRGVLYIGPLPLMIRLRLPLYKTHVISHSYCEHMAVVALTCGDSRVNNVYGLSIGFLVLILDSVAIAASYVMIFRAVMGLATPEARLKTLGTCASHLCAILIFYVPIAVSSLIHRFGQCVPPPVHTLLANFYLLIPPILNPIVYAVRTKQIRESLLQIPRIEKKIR
How it was run: as §1

O52N1 = tested on: T6, O52N1
T6 sequence (whole entry): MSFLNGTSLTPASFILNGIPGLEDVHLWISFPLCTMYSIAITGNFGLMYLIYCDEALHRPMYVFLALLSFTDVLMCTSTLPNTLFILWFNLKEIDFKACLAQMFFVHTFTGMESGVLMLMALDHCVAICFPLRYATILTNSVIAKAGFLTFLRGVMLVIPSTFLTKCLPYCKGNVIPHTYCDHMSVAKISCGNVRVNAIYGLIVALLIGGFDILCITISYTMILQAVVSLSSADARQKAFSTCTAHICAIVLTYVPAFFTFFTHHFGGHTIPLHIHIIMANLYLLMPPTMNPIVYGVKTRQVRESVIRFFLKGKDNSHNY
How it was run: as §1

O52N2 = tested on: T7, O52N2
T7 sequence (whole entry): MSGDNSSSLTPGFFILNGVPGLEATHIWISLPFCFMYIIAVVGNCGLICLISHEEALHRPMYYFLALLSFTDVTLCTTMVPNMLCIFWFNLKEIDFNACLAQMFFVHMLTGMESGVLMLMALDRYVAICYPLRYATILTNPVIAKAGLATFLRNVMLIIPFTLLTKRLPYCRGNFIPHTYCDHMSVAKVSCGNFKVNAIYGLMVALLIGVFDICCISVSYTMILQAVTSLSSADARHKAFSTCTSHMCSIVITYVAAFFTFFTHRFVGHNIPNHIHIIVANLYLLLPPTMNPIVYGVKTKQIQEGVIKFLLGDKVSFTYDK
How it was run: as §1

O52N4 = tested on: T8, O52N4
T8 sequence (whole entry): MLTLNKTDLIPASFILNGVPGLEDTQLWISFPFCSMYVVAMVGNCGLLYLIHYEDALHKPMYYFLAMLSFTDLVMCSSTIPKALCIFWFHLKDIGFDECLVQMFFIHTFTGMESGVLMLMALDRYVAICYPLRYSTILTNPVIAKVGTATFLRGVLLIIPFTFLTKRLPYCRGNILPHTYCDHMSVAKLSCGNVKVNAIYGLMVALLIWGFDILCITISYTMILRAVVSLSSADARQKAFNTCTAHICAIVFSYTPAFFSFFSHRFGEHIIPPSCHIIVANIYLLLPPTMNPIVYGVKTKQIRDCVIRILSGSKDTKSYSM
How it was run: as §1

O52P1 = tested on: T9, O52P1
T9 sequence (whole entry): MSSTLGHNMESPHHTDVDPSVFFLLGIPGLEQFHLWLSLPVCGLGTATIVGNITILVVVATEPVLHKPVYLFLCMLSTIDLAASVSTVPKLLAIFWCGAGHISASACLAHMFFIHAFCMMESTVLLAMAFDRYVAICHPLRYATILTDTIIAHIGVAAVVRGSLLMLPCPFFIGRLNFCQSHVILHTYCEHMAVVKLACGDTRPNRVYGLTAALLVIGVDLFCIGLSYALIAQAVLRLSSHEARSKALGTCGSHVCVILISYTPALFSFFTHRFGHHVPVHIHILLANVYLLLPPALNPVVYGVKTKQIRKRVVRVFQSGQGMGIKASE
How it was run: as §1

O52R1 = tested on: T10, O52R1
T10 sequence (whole entry): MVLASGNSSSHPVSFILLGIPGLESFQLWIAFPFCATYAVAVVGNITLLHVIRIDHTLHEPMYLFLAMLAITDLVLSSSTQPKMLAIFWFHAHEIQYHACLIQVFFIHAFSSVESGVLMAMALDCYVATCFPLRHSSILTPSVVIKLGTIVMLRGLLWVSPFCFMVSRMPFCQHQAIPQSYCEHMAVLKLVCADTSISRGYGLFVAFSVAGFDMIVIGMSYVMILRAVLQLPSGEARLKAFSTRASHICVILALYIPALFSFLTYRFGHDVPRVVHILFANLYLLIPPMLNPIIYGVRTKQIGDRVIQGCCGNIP
How it was run: as §1

O52W1 = tested on: T11, O52W1
T11 sequence (whole entry): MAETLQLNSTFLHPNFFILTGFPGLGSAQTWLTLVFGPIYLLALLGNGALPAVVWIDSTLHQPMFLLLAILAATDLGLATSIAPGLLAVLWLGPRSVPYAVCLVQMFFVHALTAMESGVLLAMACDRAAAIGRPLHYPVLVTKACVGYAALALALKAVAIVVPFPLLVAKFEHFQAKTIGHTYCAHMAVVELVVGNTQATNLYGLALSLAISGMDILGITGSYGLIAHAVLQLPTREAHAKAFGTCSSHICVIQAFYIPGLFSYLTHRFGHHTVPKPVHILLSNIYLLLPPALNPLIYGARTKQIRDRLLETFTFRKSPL
How it was run: as §1

O56A3 = tested on: T12, O56A3
T12 sequence (whole entry): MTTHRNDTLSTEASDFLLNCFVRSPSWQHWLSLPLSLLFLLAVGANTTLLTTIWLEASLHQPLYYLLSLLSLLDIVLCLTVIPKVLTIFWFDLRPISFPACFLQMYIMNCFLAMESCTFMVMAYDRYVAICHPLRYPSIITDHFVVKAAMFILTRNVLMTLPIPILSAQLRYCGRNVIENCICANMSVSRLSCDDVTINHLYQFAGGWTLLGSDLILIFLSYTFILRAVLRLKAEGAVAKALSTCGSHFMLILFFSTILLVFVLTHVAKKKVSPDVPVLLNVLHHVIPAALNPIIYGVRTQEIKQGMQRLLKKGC
How it was run: as §1

O56B1 = tested on: T13, O56B1
T13 sequence (whole entry): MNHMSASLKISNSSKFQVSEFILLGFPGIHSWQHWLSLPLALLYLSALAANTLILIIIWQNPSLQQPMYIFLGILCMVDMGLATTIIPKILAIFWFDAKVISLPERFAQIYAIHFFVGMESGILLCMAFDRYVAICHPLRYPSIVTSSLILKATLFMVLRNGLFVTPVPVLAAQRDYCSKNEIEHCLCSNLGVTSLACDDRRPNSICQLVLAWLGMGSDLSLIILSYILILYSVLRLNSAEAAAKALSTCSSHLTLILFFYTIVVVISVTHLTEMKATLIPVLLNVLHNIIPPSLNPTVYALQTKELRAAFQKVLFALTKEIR
How it was run: as §1

O56B4 = tested on: T14, O56B4
T14 sequence (whole entry): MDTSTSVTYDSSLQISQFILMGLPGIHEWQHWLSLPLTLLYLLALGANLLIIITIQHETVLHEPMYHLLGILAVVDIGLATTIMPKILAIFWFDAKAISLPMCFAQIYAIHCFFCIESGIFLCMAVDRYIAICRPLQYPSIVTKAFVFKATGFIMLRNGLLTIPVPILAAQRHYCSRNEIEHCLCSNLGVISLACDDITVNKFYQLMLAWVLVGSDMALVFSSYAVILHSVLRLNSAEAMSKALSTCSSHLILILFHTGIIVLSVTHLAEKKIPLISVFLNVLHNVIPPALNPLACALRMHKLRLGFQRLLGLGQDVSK
How it was run: as §1

O5AC2 = tested on: T15, O5AC2
T15 sequence (whole entry): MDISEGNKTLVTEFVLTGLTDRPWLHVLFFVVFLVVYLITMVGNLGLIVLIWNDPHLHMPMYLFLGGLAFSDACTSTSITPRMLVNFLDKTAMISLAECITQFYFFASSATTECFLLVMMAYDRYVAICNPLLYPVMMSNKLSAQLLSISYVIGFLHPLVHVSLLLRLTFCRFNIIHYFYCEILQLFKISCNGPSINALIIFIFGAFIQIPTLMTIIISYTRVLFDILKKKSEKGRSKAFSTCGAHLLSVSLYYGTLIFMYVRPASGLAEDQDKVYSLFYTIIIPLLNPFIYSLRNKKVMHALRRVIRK
How it was run: as §1

O5AK2 = tested on: T16, O5AK2
T16 sequence (whole entry): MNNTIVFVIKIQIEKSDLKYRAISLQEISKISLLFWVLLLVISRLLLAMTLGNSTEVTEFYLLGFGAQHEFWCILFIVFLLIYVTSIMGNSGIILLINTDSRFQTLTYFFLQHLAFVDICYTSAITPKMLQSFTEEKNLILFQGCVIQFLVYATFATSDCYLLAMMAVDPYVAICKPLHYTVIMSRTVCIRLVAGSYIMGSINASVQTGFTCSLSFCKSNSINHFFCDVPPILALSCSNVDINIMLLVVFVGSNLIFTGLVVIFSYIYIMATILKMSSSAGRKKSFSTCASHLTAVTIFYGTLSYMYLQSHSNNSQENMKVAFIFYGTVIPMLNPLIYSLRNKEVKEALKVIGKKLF
How it was run: as §1

O5AK3 = tested on: T17, O5AK3
T17 sequence (whole entry): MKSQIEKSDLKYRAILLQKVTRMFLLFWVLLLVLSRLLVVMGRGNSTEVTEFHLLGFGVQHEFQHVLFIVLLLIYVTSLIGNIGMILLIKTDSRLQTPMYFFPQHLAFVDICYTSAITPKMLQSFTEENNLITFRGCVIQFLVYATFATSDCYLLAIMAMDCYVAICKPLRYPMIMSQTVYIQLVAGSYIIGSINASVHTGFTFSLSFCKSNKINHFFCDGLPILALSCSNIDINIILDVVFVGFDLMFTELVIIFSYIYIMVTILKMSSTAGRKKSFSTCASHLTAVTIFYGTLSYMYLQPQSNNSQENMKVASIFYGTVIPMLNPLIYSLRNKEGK
How it was run: as §1

Measured: odorant receptor agonist call

CC12C=CCC1C1CCC3=CC(=O)CCC3(C)C1CC2 (centres undefined)
active: O52N4
inactive: all other assays above

CC1CCC(C(C)C)C(O)C1 (centres undefined)
active: O52I2
inactive: all other assays above

— the M2OR odorant receptor database
